# Results published in article PMC7819943, “Rice protein-binding microarrays: a tool to detect cis-acting elements near promoter regions in rice”.
# This is one part of the list.
# Target: T1, OsSMF1 (Oryza sativa, UniProt Q6ZLB0 1-436)
# T1 sequence: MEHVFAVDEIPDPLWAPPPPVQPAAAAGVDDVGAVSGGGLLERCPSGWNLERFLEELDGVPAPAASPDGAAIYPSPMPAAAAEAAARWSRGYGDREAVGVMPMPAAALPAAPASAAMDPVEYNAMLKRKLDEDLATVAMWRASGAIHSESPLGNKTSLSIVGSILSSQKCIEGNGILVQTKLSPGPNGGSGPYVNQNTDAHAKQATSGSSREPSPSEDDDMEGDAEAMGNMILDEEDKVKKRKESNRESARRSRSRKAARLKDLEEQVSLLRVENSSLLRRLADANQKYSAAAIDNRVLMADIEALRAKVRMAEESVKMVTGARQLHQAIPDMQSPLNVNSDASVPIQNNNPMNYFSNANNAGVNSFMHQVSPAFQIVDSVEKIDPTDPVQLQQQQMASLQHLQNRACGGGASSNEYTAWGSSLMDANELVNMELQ
# Experiment: protein-binding microarray (RPBM); PBS, 2% BSA, 51.3 ng/ul salmon testes DNA, 50 uM zinc acetate, 200 nM TF, 25 C, 1 h; high values mean tight binding
# Settings: protein: recombinant; tags: N-terminal polyhistidine and DsRed monomer fusion (pET32a); chain copies: 2; label: CyDye5-dUTP incorporated in the synthesized complementary strand; 3' TTTTT single-stranded linker to array surface; dsDNA, one strand shown
# Method in brief: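 Polyhistidine-tagged DsRed fusions of transcription factors, joined at the N-terminus, were expressed in E. coli BL21-CodonPlus and isolated on Ni–NTA. They were incubated at 200 nM for 1 h at 25 °C on a custom Agilent array, double-stranded and BSA-blocked, in PBS with 2% BSA, salmon testes DNA and 50 µM zinc acetate. The binding signal is per-feature fluorescence intensity (arbitrary units) read on an Axon 4000B scanner after washing.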
row,Sequence,binding signal
1,GCCCATAAAACCGTGCCACCAGGCTAATCCAATCACCGAGCGGAGTCACCTAGTGCAG,3180 fluorescence intensity (a.u.)
2,AGTTCTTGCTGACATACTTGATCTCCAGGATCTCTTCCACCGGAGTCACCTAGTGCAG,4550 fluorescence intensity (a.u.)
3,TCTCGTTATTGCTTCGTCAAGCCAAATATTGACTGCTGGTCGGAGTCACCTAGTGCAG,3350 fluorescence intensity (a.u.)
4,GATTTTCTCTGTCTGCTCGGCTGCTCGCTTGCTTGCGCTGCGGAGTCACCTAGTGCAG,3710 fluorescence intensity (a.u.)
5,GGGAGATCGAGTCAGACACGTACTACTGCACTAGAGCAAACGGAGTCACCTAGTGCAG,5570 fluorescence intensity (a.u.)
6,CGAAGCCGTAGTCCGCCACGGAGGCGGTCCTCGCCGACGCCGGAGTCACCTAGTGCAG,3890 fluorescence intensity (a.u.)
7,CGGAGAGAGATCGCCCGCCACGTCACCACGCCACACCCCACGGAGTCACCTAGTGCAG,38300 fluorescence intensity (a.u.)
8,CTTGTTACTCACAGTCTCCGTCTCTCCATCAAAACAACCACGGAGTCACCTAGTGCAG,3320 fluorescence intensity (a.u.)
9,AAACGGAAGCTCACCTTCCCACCGCCACGTCCCGGCTCCCCGGAGTCACCTAGTGCAG,8770 fluorescence intensity (a.u.)
10,ATCCCCAATATCAGTAGGTGAGCATCATCTAAATTGCATTCGGAGTCACCTAGTGCAG,3390 fluorescence intensity (a.u.)
11,CCGAGTGACGATGCAGCTGAGTCGGAGCGCAGCACGACTTCGGAGTCACCTAGTGCAG,4290 fluorescence intensity (a.u.)
12,GCGGCTGACGAGGAAGACGACGACACGAGTCACGGGAGTGCGGAGTCACCTAGTGCAG,4210 fluorescence intensity (a.u.)
13,CTCGGATTCTCCGGCGTGGAGAGTTTGGGCAGAACACCAGCGGAGTCACCTAGTGCAG,3470 fluorescence intensity (a.u.)
14,ATTGGATGCATGTATTACATTTATTAGATTAATCCAAATTCGGAGTCACCTAGTGCAG,30100 fluorescence intensity (a.u.)
15,AAGCCAACCAACAAGACGAGGCGAACGTCACGCACGCACGCGGAGTCACCTAGTGCAG,3500 fluorescence intensity (a.u.)
16,ATCTGAACATAACATATGCCAAAATTTACAGCTTGAAGTTCGGAGTCACCTAGTGCAG,19000 fluorescence intensity (a.u.)
17,GGCCTTCCCCATCCCCATCTCTCATCAGCCGCAAACTGCTCGGAGTCACCTAGTGCAG,32700 fluorescence intensity (a.u.)
18,TTTTGTTTCACCATTTCGGCTCACTCCATAGGACATGGAACGGAGTCACCTAGTGCAG,3520 fluorescence intensity (a.u.)
19,CTTGGTCTGTGTTTCAGGCTAAAATATGAAGATCAAACTTCGGAGTCACCTAGTGCAG,6470 fluorescence intensity (a.u.)
20,AGGAATCTTGCCTGACGAAACTTGCCTGAGTCAGGCGTAGCGGAGTCACCTAGTGCAG,5150 fluorescence intensity (a.u.)
21,AATAAACCATGGTGTTTGTATTGGTGTGTTGGTGACTACGCGGAGTCACCTAGTGCAG,3880 fluorescence intensity (a.u.)

# Some values from above:
# Entry for CGAAGCCGTAGTCCGCCACGGAGGCGGTCCTCGCCGACGCCGGAGTCACCTAGTGCAG under binding signal: 3890 fluorescence intensity (a.u.)
# Entry for AGTTCTTGCTGACATACTTGATCTCCAGGATCTCTTCCACCGGAGTCACCTAGTGCAG under binding signal: 4550 fluorescence intensity (a.u.)
# Entry for ATCCCCAATATCAGTAGGTGAGCATCATCTAAATTGCATTCGGAGTCACCTAGTGCAG under binding signal: 3390 fluorescence intensity (a.u.)

# The list goes on:

row,Sequence,binding signal
1,GTAGGTGACATGTGTGGTGTCACACTGACTCAGCCATCACCGGAGTCACCTAGTGCAG,10600 fluorescence intensity (a.u.)
2,TTTAATAAAATCACATATTTGTTAATACTTTTATATATTTCGGAGTCACCTAGTGCAG,23800 fluorescence intensity (a.u.)
3,AGTTATCTACATACCATCTAAATATGACGTGGAAAGATTACGGAGTCACCTAGTGCAG,14600 fluorescence intensity (a.u.)
4,TTACTACTAGCTTTGTCATGTACTGGCATTTGCATCCGTACGGAGTCACCTAGTGCAG,3900 fluorescence intensity (a.u.)
5,ATTCAACAGTCACCACCAGCTAATCCCTTTCAACTTGCCACGGAGTCACCTAGTGCAG,4450 fluorescence intensity (a.u.)
6,AAAGGAGAGGCAGAAGCAGCGTCATCGACGACGACGCCATCGGAGTCACCTAGTGCAG,4440 fluorescence intensity (a.u.)
7,GCACGGGCTCAACACTAGTCATGTCGTTCTGTGGGCTGGGCGGAGTCACCTAGTGCAG,3300 fluorescence intensity (a.u.)
8,AGGGAGATGGACGTACGGCGTCACCGCCGCGTCGACGGACCGGAGTCACCTAGTGCAG,7110 fluorescence intensity (a.u.)
9,GTGGGCCCCGCGGTCGCCTGGTCCCACATGTCAGTAATGCCGGAGTCACCTAGTGCAG,3190 fluorescence intensity (a.u.)
10,TTGATGGCGATCTGCGAGGCCGTGCGGGTCACGGAGCGCGCGGAGTCACCTAGTGCAG,30900 fluorescence intensity (a.u.)
11,AAAACGCCCAATACGTACACCGCGCCCGCGTCACGTCACCCGGAGTCACCTAGTGCAG,6660 fluorescence intensity (a.u.)
12,GCCGCCGCCATCTCCCTGGCCGCGGCCACCGTCAGCGAGGCGGAGTCACCTAGTGCAG,5280 fluorescence intensity (a.u.)
13,ATAGCATATGGCTTATCTCATAATTCATGACATCACAAACCGGAGTCACCTAGTGCAG,3750 fluorescence intensity (a.u.)
14,AGTTTAGACCACTAGCTGTGTAGTCACGTCCATTTAGTAACGGAGTCACCTAGTGCAG,3300 fluorescence intensity (a.u.)
15,ATCAGGAAACAGTCTCTGCTTGCTTGCGTAAGCTGACGACCGGAGTCACCTAGTGCAG,6420 fluorescence intensity (a.u.)
16,GAAGTTCCCGTAAACGTCGACACGTCGTCCAGCTTTATCACGGAGTCACCTAGTGCAG,7300 fluorescence intensity (a.u.)
17,CTACAAACCACTAAATGACACACACATTTGCTATCCTGTCCGGAGTCACCTAGTGCAG,4260 fluorescence intensity (a.u.)
18,ATTCTTATCCTGCTTTTATATGTTTCACATCCCCTTCATACGGAGTCACCTAGTGCAG,21700 fluorescence intensity (a.u.)
19,CACTGAACCCACATATCATATACATATAAGGACCCACATGCGGAGTCACCTAGTGCAG,28700 fluorescence intensity (a.u.)
20,TGTTGATCTTGGCGATGACACGGCCACAATGATCTGCAAACGGAGTCACCTAGTGCAG,4620 fluorescence intensity (a.u.)
21,CGGGCCAGCTACTATTCCGGCCGCCTACGTCCGCCGTGCGCGGAGTCACCTAGTGCAG,3550 fluorescence intensity (a.u.)
